Measurements published in publication PMC9570212, “PAUF Induces Migration of Human Pancreatic Cancer Cells Exclusively via the TLR4/MyD88/NF-κB Signaling Pathway” (International Journal of Molecular Sciences, 2022).
These are yes or no findings as the source states them, for the method shown. In cells and extracts the contact can be indirect. Some binding calls cover weakened binding; strength is not graded here.

The chains behind the UniProt entries cited, without tags or fusion partners. Residues count along the entry.
UniProt Q99836: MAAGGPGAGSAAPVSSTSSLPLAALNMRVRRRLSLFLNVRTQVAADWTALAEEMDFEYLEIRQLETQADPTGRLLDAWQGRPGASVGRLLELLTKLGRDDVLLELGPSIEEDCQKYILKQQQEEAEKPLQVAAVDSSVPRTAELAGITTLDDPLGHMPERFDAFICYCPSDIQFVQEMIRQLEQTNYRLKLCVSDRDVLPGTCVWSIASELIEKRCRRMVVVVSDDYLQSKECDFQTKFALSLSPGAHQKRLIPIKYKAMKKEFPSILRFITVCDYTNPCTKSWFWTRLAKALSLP
UniProt O00206, residues 24-839: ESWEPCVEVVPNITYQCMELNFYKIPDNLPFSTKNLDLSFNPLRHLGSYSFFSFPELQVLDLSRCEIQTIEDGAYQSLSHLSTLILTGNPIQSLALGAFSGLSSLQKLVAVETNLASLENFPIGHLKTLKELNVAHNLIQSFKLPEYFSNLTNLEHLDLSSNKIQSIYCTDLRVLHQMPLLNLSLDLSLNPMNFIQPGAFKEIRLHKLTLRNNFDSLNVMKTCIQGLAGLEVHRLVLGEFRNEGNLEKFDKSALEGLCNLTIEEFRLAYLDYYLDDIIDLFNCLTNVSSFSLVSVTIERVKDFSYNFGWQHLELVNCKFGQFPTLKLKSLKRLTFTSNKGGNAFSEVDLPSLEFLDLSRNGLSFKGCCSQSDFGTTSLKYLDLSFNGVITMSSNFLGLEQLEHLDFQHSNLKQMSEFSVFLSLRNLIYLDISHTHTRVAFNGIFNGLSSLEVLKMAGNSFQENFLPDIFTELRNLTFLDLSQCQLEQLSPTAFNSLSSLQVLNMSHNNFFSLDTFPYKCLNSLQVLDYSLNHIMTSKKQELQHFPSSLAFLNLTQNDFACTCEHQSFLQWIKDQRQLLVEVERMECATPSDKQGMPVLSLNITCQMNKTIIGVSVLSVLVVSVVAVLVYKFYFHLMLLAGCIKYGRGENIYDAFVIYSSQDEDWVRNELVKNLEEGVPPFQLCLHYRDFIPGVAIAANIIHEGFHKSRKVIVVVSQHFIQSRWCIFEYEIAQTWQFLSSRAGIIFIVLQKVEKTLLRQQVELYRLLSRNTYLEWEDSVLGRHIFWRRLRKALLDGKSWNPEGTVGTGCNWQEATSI

Assays:
[1] = molecular target: MyD88 (human (endogenous in Panc-1)) (UniProt Q99836); experiment: co-IP; Panc-1_Mock and Panc-1_TLR4^OE cells treated with rPAUF (0.1 µg/mL) for 0-120 min; 200 µg lysate protein in IP lysis buffer precipitated with anti-MyD88 or anti-TRIF antibody and protein A agarose; Western blot against TLR4 and MyD88/TRIF
[2] = molecular target: human TLR4 overexpressed in Panc-1 cells (Panc-1_TLR4^OE) (human) (UniProt O00206); experiment: cross-linking; Panc-1_Mock and Panc-1_TLR4^OE cells incubated with or without rPAUF for 15 min at 37 °C, then membrane-impermeable crosslinker BS3 (2.5 mM) 30 min at room temperature; lysis, SDS-PAGE, Western blot with anti-human TLR4; only the binder purified
[3] = molecular target: human TLR4 overexpressed in Panc-1 cells (Panc-1_TLR4^OE) (human) (UniProt O00206); experiment: proximity ligation; Panc-1_Mock and Panc-1_TLR4^OE cells on coverslips treated with PBS or rPAUF (2 µg/mL) at 4 °C for 30 min, BS3 (2.5 mM) at 4 °C for 45 min, fixed; primary antibodies against PAUF and human TLR4, Duolink PLA probes; only the binder purified

binding [1] | binding [2] | binding [3] | Molecule
binds |  |  | human TLR4 overexpressed in Panc-1 cells (Panc-1_TLR4^OE) (from UniProt O00206 24-839) (receptor)
 | binds | binds | recombinant pancreatic adenocarcinoma up-regulated factor (PAUF) (ligand, UniProt Q96DA0 17-172, looked up) GKMYGPGGGKYFSTTEDYDHEITGLRVSVGLLLVKSVQVKLGDSWDVKLGALGGNTQEVTLQPGEYITKVFVAFQAFLRGMVMYTSKDRYFYFGKLDGQISSAYPSQEGQVLVGIYGQYQLLGIKSIGFEWNYPLEEPTTEPPVNLTYSANSPVGR
